Laboratory results: PubChem BioAssay AID504791 (Drosophila RNAi Screening Center, 2011)
Purpose: 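Genes of the fly required for silencing by miRNA, siRNA or endo-siRNA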 (primary screen). System: Drosophila S2-derived reporter cells. Reagents: long dsRNA against Drosophila genes, about 150-250 ng dsRNA per well (siRNA assay); about 80-120 ng (miRNA assay). Timing: about 5 days (siRNA assay); about 4 days (miRNA assay). Conditions: copper sulfate induction of reporters: 25 µM (siRNA assay); 200 mM stated (miRNA assay), 1-2 days before reading. Detection: 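Dual luciferase assay: Renilla to firefly signal ratio in each well, scaled to the mean ratio of its plate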. Scale: siRNA reporter hit score: higher = 3 marks a strong hit with raised ratio; -3 a strong hit with lowered ratio. Call rule: 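First-pass picks had plate-scaled ratios over 1.5 for the siRNA assay, over 1.6 for the miRNA assay, or under 0.6; two distinct dsRNAs had to score alike on retest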.
The deposit covers about 23,000 reagents; shown is an unselected part of those that have a named target and a result. Over the whole deposit, 199 (0.86%) were called active. 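Plate-scaled ratios behind the calls are not deposited; printed light signals are raw; many rows marked increased or decreased are still called inactive.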 A number with no mark means an inactive call. Names joined by + are all predicted targets of the reagent.

gene knocked down | DRSC id | siRNA reporter hit score | stable siRNA reporter change | miRNA reporter change | stable assay Renilla, run 1 (luminescence) | stable assay firefly, run 1 (luminescence)
CG9436 | DRSC05005 | – | – | – | 14438 | 1.91e6
CG10339 | DRSC04065 | – | – | – | 5954 | 3.44e5
CSN8 | DRSC02257 | – | reporter ratio lowered past the hit cutoff | reporter ratio lowered past the hit cutoff | 27287 | 5.35e5
puml | DRSC06793 | – | – | – | 6879 | 4.29e5
Tomosyn | DRSC19365 | – | – | – | 5263 | 2.11e5
Tomosyn | DRSC19692 | – | – | – | 4472 | 4.88e5
Tomosyn | DRSC19782 | – | – | – | 7284 | 3.63e5
Tomosyn | DRSC19842 | – | – | – | 4639 | 4.78e5
CG34423 + Mthfs | DRSC04088 | – | – | – | 5939 | 3.44e5
RPA1 | DRSC16830 | – | – | – | 9922 | 6.21e5
MED14 | DRSC08235 | – | – | – | 6636 | 2.65e5
Vha16-3 | DRSC10872 | – | – | – | 7076 | 3.67e5
Cyp4p3 | DRSC07374 | – | – | – | 5834 | 3.47e5
CG15042 | DRSC19618 | – | – | – | 5487 | 5.13e5
CG5742 | DRSC06949 | – | – | – | 7574 | 2.75e5
Snr1 | DRSC12369 | – | – | – | 8127 | 6.02e5
Csas | DRSC22390 | – | – | – | 4259 | 4.77e5
Rrp47 | DRSC20124 | – | – | – | 6703 | 4.00e5
Abca3 | DRSC20546 | – | – | – | 6423 | 5.26e5
CG2336 | DRSC12581 | – | – | – | 7226 | 4.27e5
CG8916 | DRSC20120 | – | – | – | 5903 | 4.02e5
Gle1 | DRSC06485 | – | – | – | 9150 | 3.72e5
Ssl | DRSC04657 | – | – | – | 6376 | 3.36e5
CG33095 | DRSC14441 | – | – | – | 7531 | 4.43e5
CG17646 | DRSC00507 | – | – | – | 11970 | 3.60e5
CG11322 | DRSC02142 | – | – | – | 8099 | 4.51e5
Acf | DRSC14101 | – | – | – | 7363 | 4.05e5
CG13008 | DRSC19527 | – | – | – | 4776 | 3.15e5
CG13008 | DRSC19528 | – | – | – | 6179 | 5.13e5
Paf-AHalpha | DRSC20267 | – | – | – | 6071 | 4.26e5
zda | DRSC06936 | -3 | – | – | 11155 | 3.78e5
Tbcb | DRSC06067 | – | – | – | 10295 | 3.36e5
Gprk2 | DRSC16682 | 3 (active) | reporter ratio lowered past the hit cutoff | reporter ratio lowered past the hit cutoff | 6666 | 7.13e5
Gprk2 | DRSC23336 | – | – | – | 4808 | 4.32e5
CG5359 | DRSC15780 | – | – | – | 6031 | 5.28e5
chinmo | DRSC00292 | – | – | – | 71069 | 2.22e5
chinmo | DRSC00485 | – | reporter ratio lowered past the hit cutoff | – | 3452 | 4.45e5
chinmo | DRSC00509 | – | – | – | 5719 | 4.04e5
chinmo | DRSC22413 | – | – | – | 4127 | 3.54e5
CG1737 | DRSC19771 | – | – | – | 5127 | 4.36e5
Hacd1 | DRSC02988 | – | – | – | 7207 | 3.50e5
hang | DRSC19901 | – | – | – | 7183 | 3.11e5
hang | DRSC19902 | – | – | – | 4656 | 3.40e5
hang | DRSC23216 | – | reporter ratio raised past the hit cutoff | – | 4119 | 1.73e5
CG17048 | DRSC06649 | – | – | – | 6255 | 3.76e5
CG31788 | DRSC01630 | – | – | – | 5095 | 4.10e5
Ca-alpha1T | DRSC17842 | – | – | – | 5794 | 3.17e5
Ca-alpha1T | DRSC18103 | – | – | – | 4775 | 3.47e5
Ca-alpha1T | DRSC18356 | – | – | – | 5731 | 3.50e5
Ca-alpha1T | DRSC18357 | – | – | – | 5891 | 3.59e5
Ca-alpha1T | DRSC21430 | – | – | – | 8424 | 4.69e5
CG11710 | DRSC20485 | – | – | – | 5823 | 3.73e5
htl | DRSC16968 | – | – | – | 9687 | 2.72e5
CG10089 | DRSC09694 | – | – | – | 6288 | 3.95e5
CG10089 | DRSC09695 | – | – | – | 7571 | 4.76e5
CG5292 | DRSC15763 | – | – | – | 6590 | 3.24e5
CG6978 | DRSC18409 | 3 | – | – | 6344 | 3.64e5
CG8064 | DRSC16373 | – | – | – | 11810 | 4.63e5
CG42307 + mus312 | DRSC11008 | – | – | – | 6586 | 4.11e5
CG5612 | DRSC15844 | – | – | – | 6886 | 5.71e5
l(3)psg2 | DRSC10484 | – | – | – | 9566 | 5.32e5
AGO3 | DRSC21386 | – | – | – | 8743 | 4.18e5
RnpS1 | DRSC15154 | – | – | – | 10613 | 4.48e5
Nup37 | DRSC14419 | – | – | – | 6807 | 2.69e5
Dyrk3 | DRSC21055 | – | – | – | 4563 | 3.92e5
lncRNA:CR40629 | DRSC20959 | – | – | – | 5207 | 5.19e5
CG30429 | DRSC04040 | – | – | – | 5386 | 4.35e5
Mitofilin | DRSC16742 | – | – | – | 9226 | 3.58e5
HtrA2 | DRSC16425 | – | – | – | 6607 | 3.95e5
Act88F | DRSC14105 | – | reporter ratio lowered past the hit cutoff | – | 7044 | 6.86e5
Mpp6 | DRSC03169 | – | – | – | 8168 | 4.02e5
Sec63 | DRSC11002 | – | – | – | 5391 | 4.52e5
His4r | DRSC16703 | – | reporter ratio lowered past the hit cutoff (active) | – | 7586 | 7.13e5
RabX2 | DRSC18234 | – | – | – | 4587 | 3.57e5
CG6420 | DRSC16035 | – | – | – | 7438 | 5.44e5
CG33234 | DRSC07994 | – | – | – | 5236 | 4.41e5
gammaSnap1 | DRSC04686 | – | – | – | 2.40e5 | 1.43e6
CG13227 | DRSC06347 | – | – | – | 5678 | 5.07e5
p24-1 | DRSC19827 | – | – | – | 5531 | 4.52e5
CG4770 | DRSC15639 | – | – | – | 7818 | 4.06e5
ND-B18 | DRSC19947 | – | – | – | 3527 | 3.16e5
CG16775 | DRSC10225 | – | – | – | 7763 | 4.62e5
CG13739 | DRSC06410 | – | – | – | 4767 | 1.99e5
CG13739 | DRSC23200 | – | – | – | 1056 | 52245
CG42288 | DRSC06381 | – | – | – | 6371 | 2.90e5
CG9222 | DRSC03158 | – | reporter ratio lowered past the hit cutoff | – | 3832 | 4.45e5
CG33136 | DRSC05744 | – | – | – | 5155 | 3.31e5
CG31176 | DRSC15038 | – | – | – | 6411 | 3.47e5
CG31176 | DRSC16021 | – | – | – | 7110 | 3.30e5
mew | DRSC18971 | – | – | – | 5280 | 4.25e5
mew | DRSC20352 | – | – | – | 5887 | 4.65e5
Strica | DRSC04920 | – | – | – | 6180 | 3.12e5
CG1368 | DRSC19537 | – | – | – | 8123 | 5.27e5
CG10479 | DRSC09733 | – | – | reporter ratio raised past the hit cutoff | 7511 | 3.29e5
fray | DRSC16950 | – | – | – | 7235 | 3.44e5
SP1029 | DRSC16848 | – | – | – | 6651 | 3.56e5
CG18641 | DRSC00527 | – | – | – | 8660 | 4.64e5
AsnRS-m | DRSC07010 | – | – | – | 6136 | 3.15e5
P5CDh1 | DRSC11801 | – | – | – | 10916 | 5.49e5
RpS3A | DRSC17168 | – | – | – | 4843 | 3.50e5
CG42699 | DRSC18076 | – | – | – | 7035 | 4.05e5
CG42699 | DRSC18341 | – | – | – | 5835 | 2.51e5
CG13058 | DRSC09941 | – | – | – | 7300 | 3.80e5
APC7 | DRSC17937 | – | – | – | 7652 | 4.97e5
CG9119 | DRSC08620 | – | – | – | 12206 | 4.95e5
CG7102 | DRSC02647 | – | – | – | 22213 | 1.67e5
CG7102 | DRSC03007 | – | – | – | 6703 | 4.54e5

5 entries already listed, arranged by “stable assay Renilla, run 1 (luminescence)”, ascending.
gene knocked down | DRSC id | siRNA reporter hit score | stable siRNA reporter change | miRNA reporter change | stable assay Renilla, run 1 (luminescence) | stable assay firefly, run 1 (luminescence)
AsnRS-m | DRSC07010 | – | – | – | 6136 | 3.15e5
SP1029 | DRSC16848 | – | – | – | 6651 | 3.56e5
fray | DRSC16950 | – | – | – | 7235 | 3.44e5
CG10479 | DRSC09733 | – | – | reporter ratio raised past the hit cutoff | 7511 | 3.29e5
CG18641 | DRSC00527 | – | – | – | 8660 | 4.64e5
